In doi:10.1101/2019.12.31.891556:
These are yes or no findings as the source states them, for the method shown. For some of these results: In cells and extracts the contact can be indirect. Some entries that bind do so weakly or less than the wild type. For some of these results: Where a sequence is shown, tags or fusion partners need not be part of it.

Chains of the proteins cited; added tags and fusions are not shown.
UniProt Q8CHK4: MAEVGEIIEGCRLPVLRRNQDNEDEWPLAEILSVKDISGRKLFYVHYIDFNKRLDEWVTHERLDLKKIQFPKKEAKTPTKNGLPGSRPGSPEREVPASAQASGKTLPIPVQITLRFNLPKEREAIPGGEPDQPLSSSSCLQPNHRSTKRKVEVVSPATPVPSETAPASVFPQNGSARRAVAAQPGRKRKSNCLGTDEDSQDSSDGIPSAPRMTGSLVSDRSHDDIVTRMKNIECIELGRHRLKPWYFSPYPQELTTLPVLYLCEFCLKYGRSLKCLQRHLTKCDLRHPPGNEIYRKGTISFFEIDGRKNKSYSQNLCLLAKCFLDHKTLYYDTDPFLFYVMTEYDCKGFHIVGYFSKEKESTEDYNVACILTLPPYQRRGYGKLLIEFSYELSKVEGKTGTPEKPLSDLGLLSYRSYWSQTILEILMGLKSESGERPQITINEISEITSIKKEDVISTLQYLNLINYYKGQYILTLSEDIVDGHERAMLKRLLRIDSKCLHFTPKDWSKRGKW
UniProt Q8R4B8: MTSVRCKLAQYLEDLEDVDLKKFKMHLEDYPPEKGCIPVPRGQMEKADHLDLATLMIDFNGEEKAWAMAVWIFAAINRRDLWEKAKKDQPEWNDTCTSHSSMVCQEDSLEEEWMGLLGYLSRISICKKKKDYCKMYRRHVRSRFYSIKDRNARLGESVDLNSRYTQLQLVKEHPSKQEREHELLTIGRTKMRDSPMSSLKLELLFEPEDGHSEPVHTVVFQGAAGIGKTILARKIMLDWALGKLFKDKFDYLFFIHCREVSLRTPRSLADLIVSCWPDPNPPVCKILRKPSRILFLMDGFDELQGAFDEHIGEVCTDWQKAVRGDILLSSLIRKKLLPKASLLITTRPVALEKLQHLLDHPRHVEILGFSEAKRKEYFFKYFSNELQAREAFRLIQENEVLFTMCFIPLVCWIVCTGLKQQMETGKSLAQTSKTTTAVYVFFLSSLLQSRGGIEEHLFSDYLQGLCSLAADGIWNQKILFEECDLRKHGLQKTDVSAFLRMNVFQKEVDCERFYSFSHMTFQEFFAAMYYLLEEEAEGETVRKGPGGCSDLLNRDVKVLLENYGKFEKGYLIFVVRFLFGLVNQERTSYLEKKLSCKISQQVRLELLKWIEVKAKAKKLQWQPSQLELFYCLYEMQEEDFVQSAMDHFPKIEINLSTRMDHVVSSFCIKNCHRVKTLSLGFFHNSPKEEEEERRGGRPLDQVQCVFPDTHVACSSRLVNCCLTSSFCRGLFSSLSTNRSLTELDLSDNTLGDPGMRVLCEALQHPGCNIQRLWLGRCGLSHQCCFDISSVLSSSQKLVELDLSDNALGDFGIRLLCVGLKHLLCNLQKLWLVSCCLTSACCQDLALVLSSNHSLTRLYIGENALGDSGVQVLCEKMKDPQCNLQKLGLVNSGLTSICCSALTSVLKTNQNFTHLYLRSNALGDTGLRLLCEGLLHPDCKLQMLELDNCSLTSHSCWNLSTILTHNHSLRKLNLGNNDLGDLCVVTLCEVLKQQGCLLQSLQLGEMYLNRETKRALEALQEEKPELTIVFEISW

Experiments:
[1] = molecular target: Flag-tagged KAT5 (mouse) (UniProt Q8CHK4); test: co-IP
[2] = molecular target: Recombinant murine NLRP3-GST (mouse) (UniProt Q8R4B8); test: pull-down
[3] = molecular target: endogenous KAT5 (mouse (endogenous in peritoneal macrophages)) (UniProt Q8CHK4); test: co-IP

Row | binding [1] | also measured | Molecule
1 | binds | – | Myc-tagged NLRP3 (from UniProt Q8R4B8 1-1033)
2 | – | binding [2]: binds | Recombinant murine KAT5-his (from UniProt Q8CHK4 1-513) (enzyme)
3 | – | binding [3]: binds | endogenous NLRP3 (from UniProt Q8R4B8 1-1033)
4 | no binding | – | Myc-tagged caspase-1 (enzyme, UniProt P29452 1-402) MADKILRAKRKQFINSVSIGTINGLLDELLEKRVLNQEEMDKIKLANITAMDKARDLCDHVSKKGPQASQIFITYICNEDCYLAGILELQSAPSAETFVATEDSKGGHPSSSETKEEQNKEDGTFPGLTGTLKFCPLEKAQKLWKENPSEIYPIMNTTTRTRLALIICNTEFQHLSPRVGAQVDLREMKLLLEDLGYTVKVKENLTALEMVKEVKEFAACPEHKTSDSTFLVFMSHGIQEGICGTTYSNEVSDILKVDTIFQMMNTLKCPSLKDKPKVIIIQACRGEKQGVVLLKDSVRDSEEDFLTDAIFEDDGIKKAHIEKDFIAFCSSTPDNVSWRHPVRGSLFIESLIKHMKEYAWSCDLEDIFRKVRFSFEQPEFRLQMPTADRVTLTKRFYLFPGH
